Results are given in words; binding and its absence hold for the method and conditions named.
Biological target: NF2 isoform 1 with an exon 16 derived C-terminus (human) (UniProt P35240)
Test: two-hybrid

Protein sequences, listed by entry. Tags and fused reporters are not part of them. Lines headed by an entry give the natural chain unless they say otherwise; changes in a name come on top. Chains listed by the source or under a name are the forms on record and can include a tag or linker. Residues count along the entry.
C-terminal half of NF2 isoform 1 (AA M308-595) (P35240, residues 308-595): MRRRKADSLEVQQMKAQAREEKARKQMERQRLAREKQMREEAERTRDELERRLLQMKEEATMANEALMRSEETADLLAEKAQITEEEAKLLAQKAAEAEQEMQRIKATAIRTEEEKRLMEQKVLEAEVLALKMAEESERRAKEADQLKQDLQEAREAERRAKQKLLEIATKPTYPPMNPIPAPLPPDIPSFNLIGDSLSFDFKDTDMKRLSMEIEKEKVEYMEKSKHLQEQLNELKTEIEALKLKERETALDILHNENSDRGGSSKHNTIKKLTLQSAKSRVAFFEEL
C-terminal half of NF2 isoform 7 (AA M225-507) (P35240-4, form named): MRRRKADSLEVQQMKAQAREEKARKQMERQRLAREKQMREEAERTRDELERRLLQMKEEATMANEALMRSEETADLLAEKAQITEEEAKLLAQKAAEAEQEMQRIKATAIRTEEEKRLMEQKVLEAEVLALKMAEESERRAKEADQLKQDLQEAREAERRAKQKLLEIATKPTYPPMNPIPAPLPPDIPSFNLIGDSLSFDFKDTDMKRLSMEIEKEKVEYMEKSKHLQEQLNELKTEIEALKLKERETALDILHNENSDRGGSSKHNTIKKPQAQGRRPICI
UniProt Q9Y6C2: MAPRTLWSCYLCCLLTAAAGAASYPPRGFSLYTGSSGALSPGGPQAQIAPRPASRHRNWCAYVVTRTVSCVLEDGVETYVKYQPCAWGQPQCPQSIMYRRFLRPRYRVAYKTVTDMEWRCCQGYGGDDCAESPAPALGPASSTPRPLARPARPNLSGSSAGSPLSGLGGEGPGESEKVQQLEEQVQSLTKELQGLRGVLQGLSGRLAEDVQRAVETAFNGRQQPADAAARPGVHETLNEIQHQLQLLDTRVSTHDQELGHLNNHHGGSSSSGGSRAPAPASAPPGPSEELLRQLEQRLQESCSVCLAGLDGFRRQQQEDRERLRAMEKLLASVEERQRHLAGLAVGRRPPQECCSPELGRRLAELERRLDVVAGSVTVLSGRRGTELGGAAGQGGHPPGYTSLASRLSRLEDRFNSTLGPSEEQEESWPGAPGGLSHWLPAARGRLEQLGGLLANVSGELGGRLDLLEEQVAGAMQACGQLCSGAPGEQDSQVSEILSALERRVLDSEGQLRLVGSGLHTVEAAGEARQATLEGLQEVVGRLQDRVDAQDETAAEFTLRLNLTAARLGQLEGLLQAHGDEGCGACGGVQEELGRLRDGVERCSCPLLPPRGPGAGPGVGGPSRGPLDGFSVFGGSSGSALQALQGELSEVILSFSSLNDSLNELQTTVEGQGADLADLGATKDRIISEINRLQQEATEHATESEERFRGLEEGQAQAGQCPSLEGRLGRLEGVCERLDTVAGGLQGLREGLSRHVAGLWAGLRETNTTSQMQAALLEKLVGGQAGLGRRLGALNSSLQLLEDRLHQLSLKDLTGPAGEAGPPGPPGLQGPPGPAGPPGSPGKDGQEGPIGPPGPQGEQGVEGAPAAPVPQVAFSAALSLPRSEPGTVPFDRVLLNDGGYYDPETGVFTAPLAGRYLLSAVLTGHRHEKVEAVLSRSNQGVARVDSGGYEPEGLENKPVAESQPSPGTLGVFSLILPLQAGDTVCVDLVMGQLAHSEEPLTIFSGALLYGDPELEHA

| Substance | binding |
| --- | --- |
| C-terminal half of NF2 isoform 1 (AA M308-595) (from UniProt P35240-1 308-595) (domain or fragment) | no binding |
| phosphoinositide-3-kinase regulatory subunit 3 (from UniProt Q92569 1-461) | no binding |
| elastin microfibril interfacer 1 protein (from UniProt Q9Y6C2 1-1016) | no binding |
| C-terminal half of NF2 isoform 7 (AA M225-507) (from UniProt P35240-4 225-507) (domain or fragment) | no binding |

— publication doi:10.1101/2022.12.11.519953
